Results are given in words; binding and its absence hold for the method and conditions named. Some binding calls cover weakened binding; strength is not graded here.
Molecular target: T1, 人C-反应蛋白 (human C-reactive protein, extracted from human plasma, HyTest) (human) (UniProt P02741)
T1 sequence (looked up): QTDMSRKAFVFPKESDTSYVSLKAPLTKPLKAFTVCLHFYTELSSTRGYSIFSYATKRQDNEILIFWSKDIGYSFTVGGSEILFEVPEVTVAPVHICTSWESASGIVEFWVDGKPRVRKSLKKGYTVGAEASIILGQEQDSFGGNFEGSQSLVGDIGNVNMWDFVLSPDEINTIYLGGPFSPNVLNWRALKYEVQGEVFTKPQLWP
Assay: indirect ELISA, hybridoma supernatant on plate-coated CRP (1 ug/mL), HRP goat anti-mouse IgG, OD450

binding: binds
B1: 杂交瘤细胞株M20的抗体 (antibody of hybridoma cell line M20) (antibody, V domains shown)
VH: EVMLVESGGGLVKPGGSLKLSCAASGFTFSSYAMSWVRQTPERRLEWVATISTSGSDRYYPDSVKWRFTISRDSAKNILYLQMSSLRSEDTAMYYCARRGWDYWGQGTSVTVSA
VL: DVVMTQTPLSLPVSLGDQASISCRSSQSLVHSNGNTYLHWYLQKSGQSPKLLLYKVSNRFSGVSDRFSGSGSGTDFTLKISRVEAEDLGVYFCSQNTHVPPTFGGGTKLEIK

Source: patent CN106699884A
